Changes are numbered by the printed parent chain. These are yes or no findings as the source states them, for the method shown. Binding seen in cells or lysates may run through a third protein. Some entries that bind do so weakly or less than the wild type. For part of these data: Where a sequence is shown, tags or fusion partners need not be part of it.

Sequences of proteins named here, by UniProt entry; tags and fusion partners are left off.
UniProt Q14247: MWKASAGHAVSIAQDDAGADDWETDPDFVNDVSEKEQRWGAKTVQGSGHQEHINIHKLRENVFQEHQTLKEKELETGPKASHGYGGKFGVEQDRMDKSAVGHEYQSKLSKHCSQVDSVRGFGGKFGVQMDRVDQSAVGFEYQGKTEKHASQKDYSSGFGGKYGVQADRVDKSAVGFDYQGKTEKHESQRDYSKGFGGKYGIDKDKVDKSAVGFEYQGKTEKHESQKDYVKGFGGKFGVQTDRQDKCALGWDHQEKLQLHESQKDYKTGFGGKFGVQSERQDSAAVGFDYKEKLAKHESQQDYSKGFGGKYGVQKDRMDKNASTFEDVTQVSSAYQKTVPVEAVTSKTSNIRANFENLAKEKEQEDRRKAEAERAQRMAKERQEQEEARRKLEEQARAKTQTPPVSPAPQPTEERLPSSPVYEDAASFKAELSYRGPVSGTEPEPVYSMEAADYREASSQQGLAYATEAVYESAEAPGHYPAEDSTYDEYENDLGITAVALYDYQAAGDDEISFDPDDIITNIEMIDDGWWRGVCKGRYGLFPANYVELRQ

One assay has as its target T1, Y174A PBF-HA (UniProt P53801 33-180, Y174A).
T1 construct: also called PBF mutant Y174A; phospho-null PBF mutant (Y174A)
T1 sequence (looked up): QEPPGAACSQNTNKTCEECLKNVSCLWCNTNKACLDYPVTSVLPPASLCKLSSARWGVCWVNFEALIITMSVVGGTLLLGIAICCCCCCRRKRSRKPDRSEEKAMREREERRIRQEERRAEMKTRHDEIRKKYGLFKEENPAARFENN
The assay can be described thus: proximity ligation; Duolink in situ PLA of PBF-HA (WT or Y174A) and myc-CTTN in transfected MCF-7, MDA-MB-231 and TPC-1 cells; also in cells halted during scratch wound assays.

In assay [1] the target is T2, endogenous pY174 PBF (PBF phosphorylated at tyrosine 174) (human (endogenous in MCF-7, HeLa)) (UniProt P53801).
T2 sequence (chain, phosphotyrosine at 174): T1 sequence (looked up) with A142Y
The assay is described as follows: co-IP; endogenous CTTN and endogenous pY174 PBF in MCF-7 and HeLa cells.

Assay [2] concerns the target T2, endogenous pY174 PBF (PBF phosphorylated at tyrosine 174) (human (endogenous in MCF-7, HeLa)). The assay can be described thus: proximity ligation; Duolink in situ PLA of endogenous CTTN and endogenous pY174 PBF in HeLa cells.

Turning to “human Myc-CTTN (cortactin) (from UniProt Q14247 1-550)”, the binding entry with Y174A PBF-HA was “binds”.
In the case of “endogenous cortactin (CTTN) (from UniProt Q14247 1-550)”, the binding result in assay [1] and in assay [2] was “binds” in each case.

Values taken from article PMC5155689, “Pro-invasive Effect of Proto-oncogene PBF Is Modulated by an Interaction with Cortactin” (The Journal of Clinical Endocrinology and Metabolism, 2016).
